The assay in a line: qHTS Assay for Lipid Storage Modulators in Drosophila S3 Cells.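 As to cell number change: cells counted by Cell Tracker Red CMTPX staining in the red channel.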 The conditions noted are these: BODIPY lipid droplet fluorescence, 18-24 h; for cell number change: measured here: cell count max response, cells fed with added oleic acid. An excerpt: NIH Molecular Libraries Probe Production Centers Network [MLPCN] NIH Chemical Genomics Center [NCGC] MLPCN Grant: 1 R03 MH085686-01 Assay Submitter (PI): Beller, Mathias; Max-Planck-Institut fur Biophysikalische Chemie NCGC Assay Overview: Storing lipids as a reservoir for energy or the anabolism of elementary metabolites is a common feature of probably all cells and is conserved from bacteria to humans. The universal cellular lipid storage organelle is the so-called lipid storage droplet (LD). Although ubiquitous, LDs share a simple structure composed of a hydrophobic core that harbors the storage lipids, which is shielded by a droplet-specific phospholipid monolayer to which proteins are attached. The current model of LD biogenesis involves an incorporation of the lipid core into the membrane leaflets of the endoplasmic reticulum (ER) followed by a subsequent budding-like maturation of a LD, which ultimately pinches off. Once released, LD volume can increase by localized lipogenesis or fusion of existing droplet. Storage lipids are re-mobilized enzymatically by lipase activity. Lipase regulation in the adipocyte is heavily studied and involves multiple components including catecholamine signaling, the LD-associated proteins Perilipin and comparative gene identification (CGI-58) and at least two lipases named hormone sensitive lipase (HSL) and adipocyte triglyceride lipase (ATGL). LD regulation outside of the adipocyte is poorly understood and only few components are known. However, there is an urgent need to learn more about ectopic fat depots as mislocalized storage of lipids, for example in the liver or muscle, is an eminent health problem associated with insulin resistance or the metabolic syndrome. We developed a laser-scanning cytometer assay to enable 1,536-well screening and combined the results of the small molecules screen with an RNAi database based on lipid storage.
Triacsin C (Sigma-Aldrich T-4540), an inhibitor of long-chain fatty acyl CoA synthetase that blocks synthesis of triglycerides, was used as a positive control for lipid under-storage. A total of 23 nL of compound solution of different concentrations were transferred to the assay plates using a Kalypsys pin tool equipped with a 1,536-pin array containing 10-nL slotted pins (FP1S10, 0.457-mm diameter, 50.8 mm long; V&P Scientific). One microliter of oleic acid (400 uM) was added, and the plate was lidded with stainless steel rubber gasket lined lids containing pinholes. […] Fluorescence was detected by excitation of the fluorophores with a 488-nm laser on an Acumen Explorer (TTP Lab Tech). The total intensity in channel 2 (500-530 nm) reflected lipid droplet accumulation. Cells were detected using channel 3 (575-640 nm) with 5-um width and 100-um depth filters. The ratio of the number of objects in PMT channel 2 over the number of objects in PMT channel 3 was also calculated. Percent activity was computed relative to an internal control (100% inhibited lipid droplet deposition due to the presence of 20 uM Triacsin C), which was added to 32 wells/plate.

[1] abbreviates: measured here: cell number channel AC50, cells fed with added oleic acid.
[2] abbreviates: measured here: lipid fluorescence (Fed channel) AC50, cells fed with added oleic acid.

The record followed here is PubChem BioAssay AID2685 (National Center for Advancing Translational Sciences (NCATS), 2010).

SMILES strings stand for the structures. The list shows a part of the results. Further columns of the screen follow, without active or inactive calls. Most of these compounds were active or inconclusive in the main read-out, so they are no random draw. Words in brackets tell the shape of the fitted curve; partial curves, single points and poor fits give uncertain potencies.

In the case of `Cc1nc(NC(=O)c2ccc(Cl)cc2)sc1-c1csc(Nc2cccc(F)c2)n1`, the cell number change was -36.8%. Also, the AC50 (in general, the concentration at which the activity in the assay is half-maximal) under setting [1] was 16.4 µM [falling, single point]. Further, the AC50 under setting [2] was 11.6 µM [falling, partial curve].

Regarding `C/C(CCC12CC3CC(CC(C3)C1)C2)=N\NC(N)=S`, the cell number change is 0.806%. The AC50 under setting [1] was 6.51 µM [rising, single point]. The AC50 under setting [2] is 16.4 µM [rising, partial curve]. As to `COc1ccc(S(=O)(=O)N(CC(=O)NCC2CCCO2)c2ccc(Cl)cc2)cc1` (stereo not drawn), the cell number change turned out to be 3.04%. Besides, the AC50 under setting [2] is 0.58 µM [rising, single point]. Turning to `COc1ccc(CNC(=O)C/C(C)=N/NC(=O)COc2ccc(Br)cc2)cc1`, the cell number change is 36.7%. In addition, under setting [1], the AC50 was 0.0206 µM [rising, full curve, poor fit]. With `COc1ccc(S(=O)(=O)N(C)C)cc1NC(=O)CN1C(=O)NC2(CCCC2)C1=O`, the cell number change worked out at 5.26%. `CCc1ccccc1NC(=S)N1CCN(c2ccccc2F)CC1`: the cell number change was -4.85%. The concentration at half-maximal activity (AC50) under setting [2] was 2.59 µM [rising, partial curve].

As for `CCN(CCNC(=O)C1CCCN(c2ncnc3c2nc2n3CCCCC2)C1)Cc1ccccc1` (stereo not drawn), the cell number change was -4.01%. Also, the AC50 under setting [2] was 0.58 µM [rising, single point]. Turning to `CCOC(=O)CSc1nc(N2CCOCC2)c2c(c1C#N)CC(C)(C)N(C)C2`, the cell number change is -21.8%. Also, the concentration at half-maximal activity (AC50) under setting [2] was 0.651 µM [falling, single point]. `Cc1cc(C)n2nc(C(=O)N/N=C/c3ccco3)nc2n1`: the cell number change is -28.2%. For the same molecule, the AC50 under setting [2] is 0.082 µM [falling, full curve, poor fit].

Regarding `CC1C/C(=N\NC(=O)c2ccc([N+](=O)[O-])cc2)CC(C)(C)C1` (stereo not drawn), the cell number change was -20.5%. For `Cc1cccc(NC(=O)c2sc3ncn(CC(=O)N4CCN(c5ccccn5)CC4)c(=O)c3c2C)c1`, the cell number change is -24.4%.

As for `O=C(CN1CCN(CC(=O)Nc2ccccc2Cl)CC1)NCC1(N2CCCCC2)CCCCC1`, the cell number change is 21.5%. Further, under setting [2], the AC50 is 32.6 µM [rising, single point].

In the case of `C/C(=N\Nc1ncc(Cl)cc1Cl)c1ccccn1`, the cell number change is -66.9%. Also, under setting [1], the AC50 is 29.1 µM [falling, single point]. In addition, under setting [2], the AC50 is 29.1 µM [falling, single point].

Regarding `Cc1c(OCC(=O)NCCCN2CCOCC2)ccc2c1oc(=O)c1ccccc12`, the cell number change amounted to 5.38%.

Consider `COc1cc(C2c3c(c(C)c(C)oc3=O)Oc3c(C)c(C)oc(=O)c32)ccc1OS(=O)(=O)c1ccc(C)cc1`, for which the cell number change was -9.27%.

`COc1ccccc1NC1=C(NC(C)=O)C(=O)c2ccccc2C1=O`: the AC50 under setting [1] was 1.3 µM [rising, full curve] and the concentration at half-maximal activity (AC50) under setting [2] is 2.06 µM [rising, partial curve].

Take `Cc1cccc(N2N=C(C(=O)N3CC(=O)Nc4ccccc43)CCC2=O)c1`: the cell number change turned out to be 30.6%. Moreover, the AC50 under setting [1] is 29.1 µM [rising, single point]. For the same molecule, the half-maximal activity concentration (AC50) under setting [2] is 29.1 µM [rising, single point].
